The data set can be described thus: Plasma coenzyme Q10 and 3,8-(OH)2-DBP levels in age groups of normal human volunteers.

SMILES strings stand for the structures.

Here are results for one compound from patent US8894993B2, “Mitochondria-targeted antioxidants” (Natreon Inc., priority 2006, dated 2014).

`O=c1oc2cc(O)ccc2c2ccc(O)cc12` [3,8-(OH)2-DBP, 3,8-dihydroxydibenzo-α-pyrone]: the Plasma level is, setting by setting: (normal human volunteers 20-40 years, n = 20) 6.94 ± 0.9 µg/L; (normal human volunteers 41-65 years, n = 9) 4.25 ± 0.66 µg/L.
